According to the supplement of paper PMC8426693:
The other results are listed elsewhere or left out.

Legend:
Assay in all cases: NMR binding call after quantification (hit when 2 of 3 NMR criteria are met) (binary (1 = binding, 0 = not binding)); higher = binding
Settings in all cases: RNA concentration 10 µM; fragment concentration 200 µM; 293 K
[1] = tested on: SARS-CoV-2 3'-UTR RNA
[2] = tested on: SARS-CoV-2 3_SL1 RNA
[3] = tested on: SARS-CoV-2 3_SL1+2 RNA
[4] = tested on: SARS-CoV-2 3_SL2 RNA
[5] = tested on: SARS-CoV-2 3_SL3base RNA
[6] = tested on: SARS-CoV-2 3_s2m RNA

Measured: NMR binding call

CC1(C)CN(c2ncccc2F)CC1O (stereo not given)
0: all assays above

c1nc(CN2CCNCC2)cs1
0: all assays above

CCC(=O)Nc1cccc(N)c1C
0: all assays above

CN1CCC(Oc2cccc(F)c2)C1=O (stereo not given)
0: all assays above

COCC(=O)Nc1nnc(C)s1
0: all assays above

CNc1nccnc1C#N
0: all assays above

COc1ccc(NC(=O)Nc2cccs2)cn1
1: [1]
0: all other assays above

CC(=O)NCC1(O)CCCC1
0: all assays above

c1cc(NCC2CCCO2)ccn1 (stereo not given)
0: all assays above

Fc1cccc(CN2CCOCC2)c1
0: all assays above

CCNc1ccc(C#N)cn1
0: all assays above

CC(=O)Nc1cccnc1C(=O)O
0: all assays above

NC(=S)Nc1ccc(OC(F)(F)F)cc1
0: all assays above

COc1cc(NC(C)=O)c(OC)cc1Cl
0: all assays above

Cn1ccc(C(=O)Nc2cccc(C(=O)O)c2)n1
0: all assays above

CC(O)CCn1cccn1 (stereo not given)
0: all assays above

CC1(S(=O)(=O)N2CCC=C(F)C2)CC1
0: all assays above

CC(=O)Nc1ccc(NC(=O)C2CC2(C)C)cc1 (stereo not given)
0: all assays above

CC(=O)NCc1cn[nH]c1
0: all assays above

Fc1ccc(CNCC2CCCO2)cc1 (stereo not given)
0: all assays above

CCOc1ccc(NC(=O)c2cnccn2)cc1
0: all assays above

N#Cc1ccc(CNCc2ccc(F)cc2)cc1
0: all assays above

O=C(CC1CCCCC1)Nn1cnnc1
0: all assays above

CS(=O)(=O)NCCc1ccc(F)cc1
0: all assays above

CC(N)C(=O)N1CCCCC1C (stereo not given)
0: all assays above

Cc1cc(C(=O)NCc2cccs2)no1
0: all assays above

Cc1ccc(CN2CCS(=O)(=O)CC2)cc1
0: all assays above

CCNC(=O)Nc1cc(C)on1
0: all assays above

Cc1nccn1Cc1cccc(C#N)c1
0: all assays above

CNC(=O)C1CCCc2sc(C)nc21 (stereo not given)
0: all assays above

Cc1ncsc1C(=O)N1CCCNCC1.Cl.Cl
0: all assays above

O=C(CCCc1ccccc1)N1CCOCC1
0: all assays above

CCC(CC)C(=O)Nc1ccccc1O
0: all assays above

COc1ccc(NC2=NCCN2)cc1
0: all assays above

CC1CCN(C(=O)CCCc2ccccc2)CC1
0: all assays above

O=C(NCC1CC1)Nc1ccc2c(c1)CCO2
0: all assays above

CS(=O)(=O)Cc1nc2ccccc2[nH]1
0: all assays above

Clc1cccc(CN2CCOCC2)c1
0: all assays above

CNC(=O)c1ccc(CS(C)(=O)=O)cc1
0: all assays above

CC(=O)c1ccc(OC(F)F)cc1
0: all assays above

NC(=O)C1CCC(F)(F)CC1
0: all assays above

Cc1nn(C)c(C)c1NC(=O)CC#N
0: all assays above

Cc1csc(NC(=O)C2CCOCC2)n1
0: all assays above

CC(=O)Nc1ccc(C)c2c1CCCN2
0: all assays above

COCC(=O)Nc1ccc(O)cc1
0: all assays above

Cc1cc(F)ccc1CS(N)(=O)=O
0: all assays above

Retrieved one by one from the list above (4):
Cc1csc(NC(=O)C2CCOCC2)n1
0: all assays above

COCC(=O)Nc1ccc(O)cc1
0: all assays above

Cc1nn(C)c(C)c1NC(=O)CC#N
0: all assays above

Cc1cc(F)ccc1CS(N)(=O)=O
0: all assays above

Later entries.

CN(C)Cc1ccc(C#N)cc1
0: all assays above

Cc1cc(C2CCCN2S(C)(=O)=O)no1 (stereo not given)
0: all assays above

CC(=O)Nc1ccccc1O
0: all assays above

CCC(=O)NCc1nnc2n1CCCC2
0: all assays above

CN1CCN(C(=O)Nc2ccc(F)cc2)CC1
0: all assays above

Cc1cc(N(C)C2CC(O)C2)nc(C)n1 (stereo not given)
0: all assays above

CS(=O)(=O)NCC1CCNCC1
0: all assays above

CCNC(=O)N1CCN(C(C)=O)CC1
0: all assays above

O=C(NCCc1ccc(F)cc1)c1ccco1
0: all assays above

CCOC(=O)Nc1cccc(Cl)c1
0: all assays above

Cl.Cl.O=C(c1ccncc1)N1CCNCC1
0: all assays above

CC(C)CC(=O)NCc1ccc2c(c1)OCO2
0: all assays above

CC(N)c1nc(Cc2ccccc2)no1.Cl (stereo not given)
0: all assays above

CC(C)C(=O)N1CCN(C(C)C)CC1
0: all assays above
